{"source": "patent US5607850A", "about": "“Enzyme from microbial source: phthalyl amidase” (Eli Lilly and Company, priority 1995, dated 1997)", "test_system": "Xanthobacter agilis", "assay": "Induction of phthalyl amidase in cultures of Xanthobacter agilis (Table 1)", "format": "cell-based", "conditions": "48 hours growth", "method": "Three compounds at different concentrations were added to aerated cultures of the organism growing at 30° C. in Bac MI medium. The compounds tested were phthalate (PAA), phthalyl glycine (PAG), and PMBL. Cells of Xanthobacter agilis were grown with aeration for 24 hours. This vegetative culture was used to inoculate Bac MI medium (50 ml) containing different concentrations of the compounds to be tested. After 48 hours growth under standard conditions, cells were harvested by centrifugation and wet weight of the cells was determined. Crude cell extracts were prepared by lysozyme treatment of the cells as in Example 1. Suspensions were briefly sonicated to break up the viscous suspension. […]\nEnzyme activity in cell-free lysates was determined by monitoring conversion of the chromogenic substrate 4-(2'-carboxy-N-benzoyl)amino-2-carboxy-nitrobenzene (II) to 2-nitro-5-amino benzoic acid and phthalic acid, a reaction catalyzed by phthalyl amidase as shown below: [drawing 4]\nThe assay reaction mixture (1 ml) consisted of 0.3 μmol of the chromogenic substrate (II) and 0.001-0.5 μg of enzyme preparation in 50 mM potassium phosphate buffer, pH 8.0 (buffer A). The enzymatic reaction was conducted at 30° C. for 10 minutes and the appearance of product was monitored at 380 nm (or 430 nm). The amount of substrate hydrolyzed was calculated from a standard curve of the amine product.", "note": "At least one compound was matched to its structure with a doubt left."}
{"smiles": "O=C(O)c1ccccc1C(=O)O", "note": "[PAA, phthalate]", "values": [{"measurement": "effect on wet weight cell mass", "result": "increased the wet weight cell mass"}]}
